In patent US20230414709A1:
These are yes or no findings as the source states them, for the method shown. Some entries that bind do so weakly or less than the wild type.

Legend:
[1] = molecular target: T1, wild-type human NGAL (Neutrophil Gelatinase-Associated Lipocalin) (human), P80188; assay: Western blot, self-association (homodimer); details: remark: other sources report otherwise
T1 chain: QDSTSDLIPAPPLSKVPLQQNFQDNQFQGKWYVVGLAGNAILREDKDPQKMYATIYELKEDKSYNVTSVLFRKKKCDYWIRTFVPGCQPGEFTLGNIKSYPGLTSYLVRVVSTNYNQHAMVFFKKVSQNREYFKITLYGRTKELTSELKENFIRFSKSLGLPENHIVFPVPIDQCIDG

[2] = molecular target: T1, wild-type human NGAL (Neutrophil …); assay: Western blot of purified NGAL, homodimer band against monomer band; details: remark: other sources report otherwise

binding [1]: binds
binding [2]: binds
B1: wild-type human NGAL (Neutrophil Gelatinase-Associated Lipocalin), P80188 21-198 (ligand)
chain: T1 chain
